According to paper PMC12603240:
Results are given in words; binding and its absence hold for the method and conditions named. In cells and extracts the contact can be indirect. Some results given as binding are weak or reduced against the parent protein; the word gives no strength.

Tests used:
[1] = molecular target: E3 ubiquitin-protein ligase CBL (c-Cbl), endogenous (human (endogenous in PC9OR)) (UniProt P22681); test: co-IP; PC9OR cells lysed, immunoprecipitated with anti-c-Cbl and blotted with FGFR4 antibody, and vice versa; endogenous proteins
[2] = molecular target: E3 ubiquitin-protein ligase CBL (c-Cbl), endogenous (human (endogenous in PC9OR)) (UniProt P22681); test: proximity ligation; Duolink in situ PLA of FGFR4 and c-Cbl in the indicated cells, with or without cLMNB1 overexpression; average PLA spots per cell
[3] = molecular target: c-Cbl-myc (UniProt P22681); test: co-IP; HEK-293T cells transfected with FGFR4-Flag and c-Cbl-myc, lysed, immunoprecipitated with MYC-tag or Flag-tag antibody, Western blot; also with cLMNB1 overexpression vector and MG132 (interaction markedly enhanced by cLMNB1)

| Substance | binding [1] | binding [2] | binding [3] |
| --- | --- | --- | --- |
| fibroblast growth factor receptor 4 (FGFR4), endogenous (from UniProt P22455 22-802) | binds | binds | – |
| FGFR4-Flag (from UniProt P22455 22-802) (receptor) | – | – | binds |
